Data from PubChem BioAssay AID504467 (National Center for Advancing Translational Sciences (NCATS), 2011).
The campaign covered roughly 330,000 compounds. About 7,700 (2.3%) were called active. The shares of active, inactive and inconclusive entries below differ from those in the screen. Calls follow the shape of the dose curve; as a rule, active = well fitted inhibition curve with a large enough effect; inconclusive = small, poorly fitted or top-dose-only effect, or effect the other way; inactive = flat fitted curve, though single readings scatter. A potency beside an inconclusive call is a rough fit, not a confirmed value.

Assay: qHTS screen for small molecules that inhibit ELG1-dependent DNA repair in human embryonic kidney (HEK293T) cells expressing luciferase-tagged ELG1; also: nearly all actives have a fitted effect of over 55% in size
Settings: HEK293T ELG1-luciferase reporter, luminescence, 16 h, DNA damage induced by 5-fluorouridine; activity change, negative = inhibition: at 46.1 µM (top of the series)
Summary of the method: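 Quantitative HTS, concentration-response format. 2,000 cells/well co-treated with 5-fluorouridine and compound, 16 hr in 5% CO2 at 37 °C; ONE-Glo luminescence read after 30 min.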
% is scaled to controls: 0 for no effect and ±100 for the full control effect; potency is read from the fitted curve at half-maximal effect.

SMILES | Potency | activity change, negative = inhibition
c1ccc2c(c1)nc1n2CCN1CCNC1CCCCC1 | inconclusive: 35.5 µM [inhibitor, single point] | –
CCOc1ccccc1CN1CCNC(=O)C1CC(=O)N(C)CCC1CCOCC1 (stereo not drawn) | inconclusive: 29.1 µM [activator, partial curve, poor fit] | –
Cc1cc(S(=O)(=O)Nc2ccc(C(=O)NCC(c3ccco3)N3CCCCC3)cc2)ccc1F (stereo not drawn) | – | inactive: 0.183%
CCN(CC1CCCO1)C(=O)c1cc(COc2ccccc2SC)on1 (stereo not drawn) | – | inactive: 21.4%
Cc1nn(Cc2cccc(C(=O)NC(C)c3ccc(C(C)(C)C)cc3)c2)c(C)c1[N+](=O)[O-] (stereo not drawn) | inconclusive: 25.9 µM [inhibitor, partial curve] | –
CCC(C)NC(=O)c1cc(-c2cccs2)nc2ccccc12 (stereo not drawn) | inconclusive: 29.1 µM [inhibitor, single point] | –
CCn1cc(C(=O)NCc2ccco2)c2cc(OC)c(OC)cc2c1=O | inconclusive: 29.1 µM [inhibitor, single point] | –
CCOc1ccc(OCC)c(NC(=O)C2CCCN(c3ncccn3)C2)c1 (stereo not drawn) | inconclusive: 16.4 µM [inhibitor, partial curve, poor fit] | –
CCN(CC)S(=O)(=O)c1ccc2nnn(OCC(=O)Nc3cccc(C#N)c3)c2c1 | inconclusive: 25.9 µM [inhibitor, single point] | –
O=C(Nc1nc2ccc(Cl)cc2s1)C1CCCO1 (stereo not drawn) | inconclusive: 1.64 µM [activator, full curve] | –
CN1CCN(/N=C/c2ccc(OCc3ccccc3)cc2)CC1 | inconclusive: 14.6 µM [activator, partial curve] | –
COc1ccc(OCCSc2nnc(-c3ccccc3)n2N)cc1 | inconclusive: 32.6 µM [inhibitor, partial curve, poor fit] | –
CC1CN(C(=O)Nc2ccc3snnc3c2)c2ccccc21 (stereo not drawn) | inconclusive: 11.6 µM [activator, partial curve] | –
COc1ccccc1NC(=O)C1(C)Cc2ccccc2C(=O)O1 (stereo not drawn) | inconclusive: 32.6 µM [activator, partial curve, poor fit] | –
Cc1cccc(-n2nnnc2SCC(=O)NCC2(N3CCOCC3)CCCCC2)c1C | inconclusive: 23.1 µM [inhibitor, single point] | –
CCN(C(=O)Cc1cccs1)c1nnc(-c2cc(OC)c(OC)c(OC)c2)s1 | active: 2.91 µM | –
CCOC(=O)C1(CCCc2ccccc2)CCN(Cc2nccn2CC)CC1 | – | inactive: -8.32%

Quoted from the listing.
Entry for CN1CCN(/N=C/c2ccc(OCc3ccccc3)cc2)CC1 under Potency: inconclusive: 14.6 µM [activator, partial curve]
Entry for CCN(CC1CCCO1)C(=O)c1cc(COc2ccccc2SC)on1 (stereo not drawn) under activity change, negative = inhibition: inactive: 21.4%
